The whole screen tested about 320,000 compounds, of which about 22,000 (6.9%) were called active. The shares of active, inactive and inconclusive entries below differ from those in the screen. The call rests on the fitted dose curve; in most records, active means well fitted inhibition curve with a large enough effect; inconclusive means small, poorly fitted or top-dose-only effect, or another doubt; inactive means no such curve, though single readings can be large or run the other way. Potencies of inconclusive entries are doubtful fits and often do not repeat.
Assay: Primary qHTS for delayed death inhibitors of the malarial parasite plastid, 96 hour incubation
Settings: P. falciparum luciferase reporter growth; series mostly up to 28.7 µM
In short: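 Erythrocytes infected with luciferase-expressing P. falciparum were dispensed at 2% hematocrit and 0.05% parasitemia (final), then incubated with compounds 96 hours at 37 C in 5% CO2. Luminescence after detection reagent addition reported growth.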
Potency means the concentration at half of the fitted maximal effect.

Row | SMILES | Potency
1 | CCCCNC(=O)COC(=O)c1cc(C)oc1C | inactive
2 | O=C(Cc1csc(NC(=O)Nc2ccc(Cl)cc2)n1)NC1CCCC1 | inconclusive: 18.5 µM [inhibitor, single point]
3 | COCC(=O)Nc1nnc(COc2ccccc2)s1 | inconclusive: 18.5 µM [inhibitor, single point]
4 | CC1=Nc2ccccc2N=C(NC(=O)CN2CCN(c3ccccc3)CC2)C1c1ccccc1 (configuration not stated) | inconclusive: 11.7 µM [inhibitor, single point]
5 | O=C(Nc1ccccc1N1CCN(C(=O)c2ccc(Cl)cc2)CC1)c1cccc([N+](=O)[O-])c1 | inactive
6 | Cc1cc(C)n2nc(SCCC(=O)NCCc3ccccc3)nc2n1 | inconclusive: 13.1 µM [inhibitor, single point]
7 | O=C(CS(=O)(=O)c1ccccc1Cl)N1CCOCC1 | inactive
8 | CCOC(=O)/C=C1\CN(Cc2ccc(OC)cc2)S(=O)(=O)c2ccccc21 | inconclusive: 8.28 µM [inhibitor, partial curve, poor fit]
9 | CCn1cc(C(=O)O)c(=O)c2cc(F)c(N3CCN(C(=S)NC(=O)c4ccc(F)cc4)CC3)cc21 | inconclusive: 4.65 µM [inhibitor, partial curve]
10 | COc1cccc(-c2ncc3ccccc3c2COC(=O)c2ccc(C(C)(C)C)cc2)c1 | inconclusive: 9.28 µM [inhibitor, single point]
11 | CN1CCN(S(=O)(=O)c2cnccc2N2CCN(c3cccc(Cl)c3)CC2)CC1 | active: 2.62 µM
12 | CCn1c(C)cc(/C=C2/SC(=S)NC2=O)c1C | inactive
13 | O=C(Nc1ccncc1)c1ccc2c(c1)S(=O)(=O)c1ccccc1C2=O | inconclusive: 0.0037 µM [inhibitor, partial curve, poor fit]
14 | COc1ccc(C2C3=C(N=C4SCC(=O)N42)c2ccccc2CC3)cc1OC (configuration not stated) | inactive
15 | Cc1noc(C)c1CCC(=O)N1CCCC(N2CCN(c3ccc(F)cc3)CC2)C1 (configuration not stated) | inconclusive: 18.5 µM [inhibitor, single point]
16 | COc1ccc(-c2csc(N(CC3CCCO3)C(=O)c3ccc(C)cc3)n2)cc1 (configuration not stated) | active: 10.4 µM
17 | CC(C)NC(=O)CNc1ccc(C(F)(F)F)cc1[N+](=O)[O-] | inconclusive: 18.5 µM [inhibitor, single point]
18 | CCOC(=O)C1=C(C)OC(N)=C(C#N)C1c1ccoc1 (configuration not stated) | inactive
19 | O=C(NCC1CCCN1S(=O)(=O)c1cccs1)c1c(F)cccc1F (configuration not stated) | inconclusive: 18.5 µM [inhibitor, single point]
20 | N#Cc1c(Cl)nc(N/N=C/c2ccccc2)c(Cl)c1Cl | active: 5.22 µM
21 | CCOc1ccc(CCNc2nc3ccc(C)cc3n3cnnc23)cc1OCC | inconclusive: 1.17 µM [inhibitor, partial curve, poor fit]
22 | O=C(Nc1ccc(Cl)c(C(F)(F)F)c1)N1CCCC(O)C1 (configuration not stated) | active: 0.657 µM
23 | C=CCN(C(=O)CNC(=O)c1cccs1)C(C(=O)NC(C)(C)C)c1ccccc1 (configuration not stated) | inconclusive: 14.7 µM [inhibitor, single point]
24 | CCCn1c(SCC(=O)N2c3ccccc3Sc3ccccc32)nc2c1c(=O)n(C)c(=O)n2C | inconclusive: 0.928 µM [inhibitor, full curve, poor fit]

Row | SMILES | Potency
25 | Cc1ccc(CN2CC(C(=O)Nc3ncc(C)s3)CC2=O)cc1 (configuration not stated) | inactive
26 | O=C1c2ccccc2S(=O)(=O)N1CCOc1ccc(F)cc1 | inactive
27 | O=C(N/N=C/c1cccc([N+](=O)[O-])c1)C1CC(=O)N(c2ccc(F)cc2)C1 (configuration not stated) | inactive
28 | CCCCCCCCCCCC(=O)[O][Sn]([CH2]CCC)([CH2]CCC)[O]C(=O)CCCCCCCCCCC | inactive
29 | O=c1c2c([nH]c3ccccc13)CCCCC2 | active: 1.65 µM
30 | CCOc1cc(C)c(Cl)cc1S(=O)(=O)N(C)C | inconclusive: 14.7 µM [inhibitor, partial curve, poor fit]
31 | O=C1CCc2cc(S(=O)(=O)N3CCC(C(=O)NC4CCCC4)CC3)ccc2N1 | inconclusive: 9.28 µM [inhibitor, single point]
32 | CN(C)c1ccc(C(=O)NC2CCCc3ccccc32)cc1 (configuration not stated) | inconclusive: 4.15 µM [inhibitor, single point]
33 | CCC(C)[C@H]1CN=C(N)N1CCCc1cc(OC)c(OC)c(OC)c1 (some centres not stated) | active: 13.1 µM
34 | Cc1ccc(-n2nc3c(=O)n(CCCC(=O)NCCN4CCN(C)CC4)nc(C)c3c2C)cc1 | active: 11.7 µM
35 | Cc1ccc(NC(=O)CSc2nc(NS(=O)(=O)c3ccccc3)cc(=O)[nH]2)cc1 | active: 3.7 µM
36 | O=c1cc(CSc2ccc(Cl)cc2)nc(-c2ccccc2)[nH]1 | inactive
37 | CCCCCCCCNc1nc(Cl)nc(NCc2ccco2)n1 | inactive
38 | COc1ccc(CNC(=O)c2ccc(CS(=O)(=O)Cc3ccccc3F)o2)cc1 | inconclusive: 0.828 µM [inhibitor, full curve, poor fit]
39 | CCOCCCn1c(SCc2ccccc2)nnc1-c1ccncc1 | inconclusive: 2.08 µM [inhibitor, partial curve, poor fit]
40 | O=C(O/N=C1\CCS(=O)(=O)c2sccc21)c1c(F)cccc1F | inactive
41 | CN(CC(=O)Nc1ccc(F)c(F)c1F)C(=O)C1CSC2(C)CCC(=O)N12 (configuration not stated) | inconclusive: 18.5 µM [inhibitor, single point]
42 | CCCC(O)(CCN1CCCCC1)c1ccc(OCC)cc1 (configuration not stated) | inactive
43 | CCc1ccc(N(CC(=O)NC2CCCCC2)S(=O)(=O)c2c(C)noc2C)cc1 | active: 1.85 µM
44 | CCn1c(=O)c2cc(C(=O)N3CCCC3)sc2c2ccccc21 | inconclusive: 4.15 µM [inhibitor, single point]
45 | COc1ccc(/C=C/c2nc3cc(-c4ccccc4)ccc3o2)cc1O | inconclusive: 18.5 µM [inhibitor, single point]
46 | CCCNC(=O)C(Cc1ccccc1)NC(=O)c1cccc([N+](=O)[O-])c1 (configuration not stated) | inconclusive: 5.22 µM [inhibitor, partial curve, poor fit]
47 | CCCCN(CC)Cc1ccc(CNC(=S)Nc2cccc(F)c2)o1 | inactive

Part of the list above, with tabs:
Row	SMILES	Potency
35	Cc1ccc(NC(=O)CSc2nc(NS(=O)(=O)c3ccccc3)cc(=O)[nH]2)cc1	active: 3.7 µM
41	CN(CC(=O)Nc1ccc(F)c(F)c1F)C(=O)C1CSC2(C)CCC(=O)N12 (configuration not stated)	inconclusive: 18.5 µM [inhibitor, single point]
47	CCCCN(CC)Cc1ccc(CNC(=S)Nc2cccc(F)c2)o1	inactive
